Results published in PMC4032329.
Results are given in words; binding and its absence hold for the method and conditions named. In cells and extracts the contact can be indirect. Some entries that bind do so weakly or less than the wild type. Where a sequence is shown, tags or fusion partners need not be part of it.

Chains of the proteins cited; added tags and fusions are not shown.
UniProt Q96EB6: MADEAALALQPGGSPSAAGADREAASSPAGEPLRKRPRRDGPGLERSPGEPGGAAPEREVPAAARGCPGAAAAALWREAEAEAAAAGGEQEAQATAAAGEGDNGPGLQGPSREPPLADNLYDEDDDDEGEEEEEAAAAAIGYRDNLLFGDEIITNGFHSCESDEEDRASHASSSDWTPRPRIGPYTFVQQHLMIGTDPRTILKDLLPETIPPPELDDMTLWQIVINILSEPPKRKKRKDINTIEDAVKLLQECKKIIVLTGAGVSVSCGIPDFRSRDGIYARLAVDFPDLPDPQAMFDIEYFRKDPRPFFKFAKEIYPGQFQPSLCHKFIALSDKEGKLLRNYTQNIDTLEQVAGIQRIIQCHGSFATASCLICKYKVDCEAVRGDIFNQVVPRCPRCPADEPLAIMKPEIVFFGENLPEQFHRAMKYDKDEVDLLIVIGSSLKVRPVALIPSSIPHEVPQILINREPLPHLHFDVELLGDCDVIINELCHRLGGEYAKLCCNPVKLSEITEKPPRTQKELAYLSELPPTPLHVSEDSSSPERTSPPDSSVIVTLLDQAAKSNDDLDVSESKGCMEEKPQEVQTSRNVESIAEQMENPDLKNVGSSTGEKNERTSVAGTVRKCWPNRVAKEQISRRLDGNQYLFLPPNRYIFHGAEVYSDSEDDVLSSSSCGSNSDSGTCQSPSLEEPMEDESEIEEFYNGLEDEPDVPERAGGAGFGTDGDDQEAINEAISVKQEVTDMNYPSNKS

biological target: Myc-tagged SIRT1 (UniProt Q96EB6); test: co-IP; HEK293 cells co-transfected with Myc-tagged SIRT1 and HA-tagged NFAT (or full-length or truncated NFATc3); lysate in IP buffer (50 mM Tris pH 8.0, 150 mM NaCl), specific antibodies and protein A- or G-agarose, western blotting

Binder	binding
HA-tagged full-length NFATc3 (protein, UniProt Q12968 1-1075) MTTANCGAHDELDFKLVFGEDGAPAPPPPGSRPADLEPDDCASIYIFNVDPPPSTLTTPLCLPHHGLPSHSSVLSPSFQLQSHKNYEGTCEIPESKYSPLGGPKPFECPSIQITSISPNCHQELDAHEDDLQINDPEREFLERPSRDHLYLPLEPSYRESSLSPSPASSISSRSWFSDASSCESLSHIYDDVDSELNEAAARFTLGSPLTSPGGSPGGCPGEETWHQQYGLGHSLSPRQSPCHSPRSSVTDENWLSPRPASGPSSRPTSPCGKRRHSSAEVCYAGSLSPHHSPVPSPGHSPRGSVTEDTWLNASVHGGSGLGPAVFPFQYCVETDIPLKTRKTSEDQAAILPGKLELCSDDQGSLSPARETSIDDGLGSQYPLKKDSCGDQFLSVPSPFTWSKPKPGHTPIFRTSSLPPLDWPLPAHFGQCELKIEVQPKTHHRAHYETEGSRGAVKASTGGHPVVKLLGYNEKPINLQMFIGTADDRYLRPHAFYQVHRITGKTVATASQEIIIASTKVLEIPLLPENNMSASIDCAGILKLRNSDIELRKGETDIGRKNTRVRLVFRVHIPQPSGKVLSLQIASIPVECSQRSAQELPHIEKYSINSCSVNGGHEMVVTGSNFLPESKIIFLEKGQDGRPQWEVEGKIIREKCQGAHIVLEVPPYHNPAVTAAVQVHFYLCNGKRKKSQSQRFTYTPVLMKQEHREEIDLSSVPSLPVPHPAQTQRPSSDSGCSHDSVLSGQRSLICSIPQTYASMVTSSHLPQLQCRDESVSKEQHMIPSPIVHQPFQVTPTPPVGSSYQPMQTNVVYNGPTCLPINAASSQEFDSVLFQQDATLSGLVNLGCQPLSSIPFHSSNSGSTGHLLAHTPHSVHTLPHLQSMGYHCSNTGQRSLSSPVADQITGQPSSQLQPITYGPSHSGSATTASPAASHPLASSPLSGPPSPQLQPMPYQSPSSGTASSPSPATRMHSGQHSTQAQSTGQGGLSAPSSLICHSLCDPASFPPDGATVSIKPEPEDREPNFATIGLQDITLDDVNEIIGRDMSQISVSQGAGVSRQAPLPSPESLDLGRSDGL	binds
HA-tagged NFATc3 (1-407AA) (domain or fragment, UniProt Q12968 1-407) MTTANCGAHDELDFKLVFGEDGAPAPPPPGSRPADLEPDDCASIYIFNVDPPPSTLTTPLCLPHHGLPSHSSVLSPSFQLQSHKNYEGTCEIPESKYSPLGGPKPFECPSIQITSISPNCHQELDAHEDDLQINDPEREFLERPSRDHLYLPLEPSYRESSLSPSPASSISSRSWFSDASSCESLSHIYDDVDSELNEAAARFTLGSPLTSPGGSPGGCPGEETWHQQYGLGHSLSPRQSPCHSPRSSVTDENWLSPRPASGPSSRPTSPCGKRRHSSAEVCYAGSLSPHHSPVPSPGHSPRGSVTEDTWLNASVHGGSGLGPAVFPFQYCVETDIPLKTRKTSEDQAAILPGKLELCSDDQGSLSPARETSIDDGLGSQYPLKKDSCGDQFLSVPSPFTWSKPKPG	binds
HA-tagged NFATc3 (408-674AA) (domain or fragment, UniProt Q12968 408-674) HTPIFRTSSLPPLDWPLPAHFGQCELKIEVQPKTHHRAHYETEGSRGAVKASTGGHPVVKLLGYNEKPINLQMFIGTADDRYLRPHAFYQVHRITGKTVATASQEIIIASTKVLEIPLLPENNMSASIDCAGILKLRNSDIELRKGETDIGRKNTRVRLVFRVHIPQPSGKVLSLQIASIPVECSQRSAQELPHIEKYSINSCSVNGGHEMVVTGSNFLPESKIIFLEKGQDGRPQWEVEGKIIREKCQGAHIVLEVPPYHNPAVTA	binds
